Consider one sequence from PMC9405023, “NRF2 Regulates Cystathionine Gamma-Lyase Expression and Activity in Primary Airway Epithelial Cells Infected with Respiratory Syncytial Virus”.

By UniProt entry, the sequences of proteins in these tests, tags left out.
UniProt Q16236, whole entry: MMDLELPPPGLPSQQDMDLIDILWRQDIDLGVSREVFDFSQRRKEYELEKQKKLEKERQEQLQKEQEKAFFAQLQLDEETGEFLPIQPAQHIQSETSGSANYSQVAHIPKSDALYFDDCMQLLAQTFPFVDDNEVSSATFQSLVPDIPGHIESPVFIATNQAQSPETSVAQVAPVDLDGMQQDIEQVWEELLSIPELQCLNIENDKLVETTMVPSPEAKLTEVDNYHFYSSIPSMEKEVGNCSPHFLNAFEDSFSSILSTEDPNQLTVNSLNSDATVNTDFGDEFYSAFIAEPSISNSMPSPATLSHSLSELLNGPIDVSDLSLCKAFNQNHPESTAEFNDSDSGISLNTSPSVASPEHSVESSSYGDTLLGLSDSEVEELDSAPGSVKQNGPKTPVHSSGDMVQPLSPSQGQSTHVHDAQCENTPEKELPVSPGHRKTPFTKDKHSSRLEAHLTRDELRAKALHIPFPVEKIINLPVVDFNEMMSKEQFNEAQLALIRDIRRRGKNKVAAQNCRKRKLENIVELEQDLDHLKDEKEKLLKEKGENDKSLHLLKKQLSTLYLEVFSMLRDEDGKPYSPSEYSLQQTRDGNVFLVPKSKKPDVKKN

The exact form of at least one protein or probe is not confirmed. Where cells or extracts were used, other partners may take part.

For data set [1], the target named is NRF2 (nuclear extract of tBHQ-treated primary SAE cells) (Homo sapiens) (UniProt Q16236). The experiment in a line: EMSA supershift. Conditions: anti-NRF2 antibody, C1 and C2 shifted, 10 mM Tris-HCl pH 8.0, 50 mM KCl, 50 mM NaCl, 1 mM MgCl2, 1 mM EDTA, 5 mM DTT, 2.5% glycerol, 0.3 ug poly dI-dC, 15 fmol probe, 6-8 ug nuclear extract, 10 uL, 15 min, protein in an extract, label: 32P (probe), unlabeled as competitor. Background: A gel shift assay detects complexes by their altered migration in electrophoresis.

For data set [2] the target is unchanged. Kind of data set: competition with a labelled probe. Conditions: 50x unlabeled WT oligo competes C1 and C2, tBHQ-treated cells; 10 mM Tris-HCl pH 8.0, 50 mM KCl, 50 mM NaCl, 1 mM MgCl2, 1 mM EDTA, 5 mM DTT, 2.5% glycerol, 0.3 ug poly dI-dC, 15 fmol probe, 6-8 ug nuclear extract, 10 uL, 15 min; protein in an extract; label: 32P (probe), unlabeled as competitor.

In the case of “CGGTCGCGGTGACGTTTCAGGCAACGCCTCTGCTGT (double strand) [-156/-120 CSE wild type (WT)]”, the binding result in data set [1] and in data set [2] was “binds” in each case.
